Assay results as given in patent publication US12509437B2, “Substituted thiophene carboxamides and derivatives thereof as microbicides” (Bayer Aktiengesellschaft, priority 2019, dated 2025).
Some entries share one result that the patent states for a list of compounds.

Tests used:
[1] = test system: Xanthomonas campestris pv. campestris; test: Xanthomonas campestris pv. campestris in vitro cell test; type: cell-based; settings: 24 h of incubation
Method in brief: (§1)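 Bacteria from liquid pre-culture diluted to set OD in LB broth and exposed to compounds dissolved in DMSO (final ≤1%). After 24 h, growth read by absorbance; inhibition derived relative to compound-free control wells.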

Alternaria alternata = Alternaria alternata in vitro cell test; type: cell-based; settings: 5 days incubation
Method in brief: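 A. alternata spores in glucose/peptone/yeast-extract liquid medium were exposed to DMSO-solubilized compound (final DMSO ≤1%). After 5 days incubation, mycelium growth read spectrometrically; inhibition derived from absorbance relative to fungicide-free control wells.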

[2] = test system: salicylate responsive promoter sequence of the PR1 (pathogenesis-related protein I) gene (AT2G14610); test: Induction of defense gene expression in Arabidopsis thaliana (PR1 promoter-GFP reporter plants); type: in vivo; settings: 3rd day after spraying, mock treated leaves set as 1.00
Method in brief: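 Transgenic A. thaliana carrying GFP under the salicylate-responsive PR1 promoter, grown five days, then sprayed with compounds. Whole-plant fluorescence imaged and quantified on day 3 post-spray, expressed relative to mock-treated leaf background set at 1.00.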

[3] = test system: Colletotrichum lindemuthianum; test: Colletotrichum lindemuthianum in vitro cell test; type: cell-based; settings: 6 days incubation
Method in brief: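 Inhibition of spore germination and mycelial growth in liquid culture, read spectrometrically after 6 days incubation. Compounds added from DMSO (final ≤1%) to spores in glucose/peptone/yeast-extract medium; absorbance compared with untreated controls.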

[4] = test system: Pseudomonas syringae pv. tomato; test: Pseudomonas syringae pv. tomato in vitro cell test; type: cell-based; settings: 20 ppm of active ingredient; 24 h of incubation
Method in brief: as §1

Structure (SMILES) | efficacy (inhibition of bacteria growth; no direct activity) ([1]; 5 ppm of active ingredient) [%] | efficacy (inhibition of bacteria growth; no direct activity) ([1]; 20 ppm of active ingredient) [%] | efficacy (inhibition of fungal growth; no direct activity) (Alternaria alternata; 5 ppm of active ingredient) [%] | efficacy (inhibition of fungal growth; no direct activity) (Alternaria alternata; 20 ppm of active ingredient) [%] | relative fluorescence value ([2]; 75 ppm) | relative fluorescence value ([2]; 300 ppm) | efficacy (inhibition of fungal growth; no direct activity) ([3]; 5 ppm of active ingredient) [%] | efficacy (inhibition of fungal growth; no direct activity) ([3]; 20 ppm of active ingredient) [%] | efficacy (inhibition of bacteria growth; no direct activity) [4] [%]
COC(=O)[C@H](CC(N)=O)NC(=O)c1sc(Br)c(Br)c1C [I.053] | ≤ 30 | ≤ 30 | ≤ 30 | ≤ 30 | above 2 | above 2 | ≤ 30 | ≤ 30 | ≤ 30
COC(=O)[C@@H](CC(N)=O)NC(=O)c1sc(Cl)c(Cl)c1C [I.054] | ≤ 30 | ≤ 30 | ≤ 30 | ≤ 30 | – | above 2 | ≤ 30 | ≤ 30 | ≤ 30
COC(=O)[C@H](CC(N)=O)NC(=O)c1sc(Cl)c(Cl)c1C [I.055] | ≤ 30 | ≤ 30 | ≤ 30 | ≤ 30 | above 2 | above 2 | ≤ 30 | ≤ 30 | ≤ 30
CON(C)C(=O)C(NC(=O)c1sc(Br)c(Br)c1C)C(C)C (stereo not drawn) [I.061] | ≤ 30 | ≤ 30 | ≤ 30 | ≤ 30 | – | above 2 | ≤ 30 | ≤ 30 | ≤ 30
Cc1c(C(=O)NCC(N)=O)sc(Cl)c1Cl [I.062] | ≤ 30 | ≤ 30 | ≤ 30 | ≤ 30 | – | above 2 | ≤ 30 | ≤ 30 | ≤ 30
Cc1c(C(=O)NC2CCNC(=O)C2)sc(Br)c1Br (stereo not drawn) [I.066] | ≤ 30 | ≤ 30 | ≤ 30 | ≤ 30 | – | above 2 | ≤ 30 | ≤ 30 | ≤ 30
Cc1c(C(=O)NC(CO)C(=O)O)sc(Cl)c1Cl (stereo not drawn) [I.067] | ≤ 30 | ≤ 30 | ≤ 30 | ≤ 30 | above 2 | above 2 | ≤ 30 | ≤ 30 | ≤ 30
Cc1c(C(=O)NC(CC(N)=O)C(=O)O)sc(Cl)c1Cl (stereo not drawn) [I.068] | ≤ 30 | ≤ 30 | ≤ 30 | ≤ 30 | above 2 | above 2 | ≤ 30 | ≤ 30 | ≤ 30
Cc1c(C(=O)NC(CCC(N)=O)C(=O)O)sc(Cl)c1Cl (stereo not drawn) [I.069] | ≤ 30 | ≤ 30 | ≤ 30 | ≤ 30 | – | above 2 | ≤ 30 | ≤ 30 | ≤ 30
Cc1c(C(=O)NC(CO)C(=O)O)sc(Br)c1Br (stereo not drawn) [I.071] | ≤ 30 | ≤ 30 | ≤ 30 | ≤ 30 | above 2 | above 2 | ≤ 30 | ≤ 30 | ≤ 30
Cc1c(C(=O)NC(CCC(N)=O)C(=O)O)sc(Br)c1Br (stereo not drawn) [I.072] | ≤ 30 | ≤ 30 | ≤ 30 | ≤ 30 | above 2 | above 2 | ≤ 30 | ≤ 30 | ≤ 30
Cc1c(C(=O)NC(Cc2c[nH]c3ccccc23)C(=O)O)sc(Br)c1Br (stereo not drawn) [I.073] | ≤ 30 | ≤ 30 | ≤ 30 | – | – | above 2 | ≤ 30 | ≤ 30 | ≤ 30
COC(=O)C(NC(=O)c1sc(Cl)c(Cl)c1C)C(=O)OC [I.084] | ≤ 30 | ≤ 30 | ≤ 30 | ≤ 30 | – | above 2 | ≤ 30 | ≤ 30 | ≤ 30
CCOC(=O)C(CC1CC1)NC(=O)c1sc(Cl)c(Cl)c1C (stereo not drawn) [I.085] | ≤ 30 | ≤ 30 | ≤ 30 | ≤ 30 | – | above 2 | ≤ 30 | ≤ 30 | ≤ 30
CCOC(=O)C(NC(=O)c1sc(Cl)c(Cl)c1C)C(=O)OCC [I.087] | ≤ 30 | ≤ 30 | ≤ 30 | ≤ 30 | – | above 2 | ≤ 30 | ≤ 30 | ≤ 30
CCOC(=O)C1(NC(=O)c2sc(Cl)c(Cl)c2C)CN(C(=O)OC(C)(C)C)C1 [I.088] | ≤ 30 | ≤ 30 | ≤ 30 | – | – | above 2 | ≤ 30 | ≤ 30 | ≤ 30
CCOC(=O)C(NC(=O)c1sc(Br)c(Br)c1C)C1CC1 (stereo not drawn) [I.089] | ≤ 30 | ≤ 30 | ≤ 30 | ≤ 30 | above 2 | above 2 | ≤ 30 | – | ≤ 30
CCOC(=O)C1(NC(=O)c2sc(Br)c(Br)c2C)CN(C(=O)OC(C)(C)C)C1 [I.090] | ≤ 30 | ≤ 30 | ≤ 30 | – | – | above 2 | ≤ 30 | ≤ 30 | ≤ 30
COC(=O)C(NC(=O)c1sc(Br)c(Br)c1C)C(=O)OC [I.091] | ≤ 30 | ≤ 30 | ≤ 30 | ≤ 30 | above 2 | above 2 | ≤ 30 | ≤ 30 | ≤ 30
